PubChem BioAssay AID1259254, NCATS | 2017
Purpose: 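Genome-wide screen for genes that prevent DNA re-replication in cancer cells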 (primary screen). Cells: human HCT116 colorectal cancer cells. Knock-down reagent: single siRNA against human genes. Timing: 3 days. Read-out: 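Nuclei stained with Hoechst and imaged; cell-cycle phase assigned by DNA content; G2 share scaled per plate, non-targeting siRNA 0%, GMNN siRNA 100%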. Scale: G2 robust z-score and G2 cells, % of GMNN control: higher = more G2 cells, more excess DNA replication; raw share of cells in G2: higher = larger share of cells with G2 DNA content. Call rule: 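Active siRNAs have a G2 robust z of 5 or more median absolute deviations over the median, which in these data means about 38% or higher of GMNN control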.
The deposit covers about 59,000 reagents; this is an unselected part. About 1,550 of all reagents (2.6%) were called active. 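G2 share is only a proxy for re-replication; each gene was hit by three separate siRNAs, and active genes were retested.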 The raw values are shown without normalisation. A number with no mark means an inactive call. Reagents against one gene are numbered here. The record does not give: the amount of reagent.

| Target gene | reagent no. | G2 robust z-score | G2 cells, % of GMNN control | raw share of cells in G2 (%) |
| --- | --- | --- | --- | --- |
| FDFT1 | 1 | -0.208 | 1.5 | 4.19 |
| FDFT1 | 2 | 2.02 | 17.2 | 11.5 |
| FDFT1 | 3 | -0.766 | -2.43 | 4.34 |
| NEDD9 | 1 | -0.469 | -0.333 | 5.34 |
| NEDD9 | 2 | -1.14 | -5.07 | 1.52 |
| NEDD9 | 3 | -1.43 | -7.1 | 2.62 |
| VTA1 | 1 | 3.22 | 25.6 | 12.8 |
| VTA1 | 2 | -0.567 | -1.02 | 3.84 |
| VTA1 | 3 | 0.888 | 9.21 | 6.24 |
| KRTAP9-2 | 1 | 0.0468 | 3.3 | 5.2 |
| KRTAP9-2 | 2 | -0.0835 | 2.38 | 4.16 |
| KRTAP9-2 | 3 | 0.732 | 8.12 | 4.87 |
| CTSW | 1 | -0.79 | -2.59 | 4.66 |
| CTSW | 2 | 1.24 | 11.7 | 9.04 |
| CTSW | 3 | 2.72 | 22.1 | 12.2 |
| BMP6 | 1 | 0.0602 | 3.39 | 5.87 |
| BMP6 | 2 | 0.621 | 7.34 | 6.72 |
| BMP6 | 3 | -0.768 | -2.44 | 4.21 |
| TMEM59 | 1 | -0.629 | -1.46 | 4.67 |
| TMEM59 | 2 | -0.162 | 1.83 | 4.71 |
| TMEM59 | 3 | -0.483 | -0.433 | 3.25 |
| HMGB1P40 | 1 | 0.802 | 8.61 | 7.02 |
| HMGB1P40 | 2 | -0.592 | -1.19 | 2.78 |
| HMGB1P40 | 3 | -0.144 | 1.96 | 3.66 |
| TIGIT | 1 | 1.32 | 12.3 | 8 |
| TIGIT | 2 | 0.616 | 7.3 | 5.41 |
| TIGIT | 3 | -0.583 | -1.13 | 2.4 |
| PRRT1 | 1 | -0.202 | 1.54 | 5.09 |
| PRRT1 | 2 | -0.322 | 0.701 | 4.61 |
| PRRT1 | 3 | 0.72 | 8.03 | 4.57 |
| KLC2 | 1 | -0.731 | -2.17 | 3.58 |
| KLC2 | 2 | 0.662 | 7.63 | 8.8 |
| KLC2 | 3 | -0.655 | -1.64 | 3.63 |
| PABIR3 | 1 | -0.644 | -1.56 | 3.04 |
| PABIR3 | 2 | 0.975 | 9.82 | 6.25 |
| PABIR3 | 3 | 0.608 | 7.24 | 5.05 |
| SNX17 | 1 | 0.78 | 8.45 | 9.15 |
| SNX17 | 2 | 0.212 | 4.46 | 5.81 |
| SNX17 | 3 | -0.445 | -0.166 | 3.34 |
| HSPB9 | 1 | -0.509 | -0.617 | 3.31 |
| HSPB9 | 2 | 0.81 | 8.66 | 6.07 |
| HSPB9 | 3 | 2.53 | 20.7 | 10.4 |
| LINC01548 | 1 | 0.367 | 5.55 | 4.83 |
| LINC01548 | 2 | -0.288 | 0.941 | 3.96 |
| LINC01548 | 3 | -0.166 | 1.8 | 4.22 |
| SCIN | 1 | 0.966 | 9.77 | 9.16 |
| SCIN | 2 | -0.725 | -2.13 | 3.67 |
| SCIN | 3 | -0.102 | 2.25 | 6.72 |
| SBF2-AS1 | 1 | -0.863 | -3.1 | 2.32 |
| SBF2-AS1 | 2 | -0.73 | -2.17 | 2.85 |
| SBF2-AS1 | 3 | 0.32 | 5.22 | 5.06 |
| DRAP1 | 1 | -0.388 | 0.24 | 3.61 |
| DRAP1 | 2 | -0.636 | -1.51 | 5.32 |
| DRAP1 | 3 | -0.459 | -0.264 | 3.23 |
| SETP20 | 1 | -0.755 | -2.35 | 2.97 |
| SETP20 | 2 | -0.814 | -2.76 | 2.2 |
| SETP20 | 3 | -0.29 | 0.929 | 5.03 |
| GPC1 | 1 | -1.16 | -5.16 | 2.88 |
| GPC1 | 2 | -0.0985 | 2.27 | 4.92 |
| GPC1 | 3 | 0.0643 | 3.42 | 4.86 |
| SSBP2 | 1 | -0.381 | 0.289 | 6.29 |
| SSBP2 | 2 | -0.508 | -0.608 | 3.99 |
| SSBP2 | 3 | -0.201 | 1.55 | 4.5 |
| RHEB | 1 | 0.434 | 6.02 | 7.05 |
| RHEB | 2 | -1.14 | -5.05 | 2.75 |
| RHEB | 3 | -1.07 | -4.55 | 2.63 |
| RSPH10B | 1 | -0.548 | -0.891 | 3.25 |
| RSPH10B | 2 | -0.446 | -0.174 | 3.07 |
| RSPH10B | 3 | 0.622 | 7.34 | 5.54 |
| RASA1 | 1 | 1.48 | 13.4 | 9.57 |
| RASA1 | 2 | -0.291 | 0.917 | 5.03 |
| RASA1 | 3 | 2.17 | 18.2 | 10.2 |
| SLC4A4 | 1 | 1.46 | 13.3 | 9.46 |
| SLC4A4 | 2 | -1.11 | -4.82 | 2.35 |
| SLC4A4 | 3 | -0.214 | 1.46 | 5.78 |
| KCNN4 | 1 | -0.692 | -1.9 | 4.6 |
| KCNN4 | 2 | 0.652 | 7.56 | 7.34 |
| KCNN4 | 3 | 1.74 | 15.2 | 10.3 |
| ASB2 | 1 | -0.965 | -3.82 | 4.22 |
| ASB2 | 2 | -0.0487 | 2.62 | 5.21 |
| ASB2 | 3 | 0.264 | 4.82 | 5.65 |
| LINC02714 | 1 | 1.59 | 14.1 | 8.6 |
| LINC02714 | 2 | 0.705 | 7.93 | 5.87 |
| LINC02714 | 3 | -0.468 | -0.327 | 3.8 |
| CBLN1 | 1 | 3.6 | 28.3 | 18.6 |
| CBLN1 | 2 | 1.21 | 11.5 | 8.28 |
| CBLN1 | 3 | 4.99 | 38.1 | 18.4 |

8 entries from above, set out differently.
LINC01548 #3: G2 robust z-score = -0.166; G2 cells, % of GMNN control = 1.8; raw share of cells in G2 (%) = 4.22
SCIN #1: G2 robust z-score = 0.966; G2 cells, % of GMNN control = 9.77; raw share of cells in G2 (%) = 9.16
SCIN #2: G2 robust z-score = -0.725; G2 cells, % of GMNN control = -2.13; raw share of cells in G2 (%) = 3.67
SCIN #3: G2 robust z-score = -0.102; G2 cells, % of GMNN control = 2.25; raw share of cells in G2 (%) = 6.72
SBF2-AS1 #1: G2 robust z-score = -0.863; G2 cells, % of GMNN control = -3.1; raw share of cells in G2 (%) = 2.32
SBF2-AS1 #2: G2 robust z-score = -0.73; G2 cells, % of GMNN control = -2.17; raw share of cells in G2 (%) = 2.85
SBF2-AS1 #3: G2 robust z-score = 0.32; G2 cells, % of GMNN control = 5.22; raw share of cells in G2 (%) = 5.06
DRAP1 #1: G2 robust z-score = -0.388; G2 cells, % of GMNN control = 0.24; raw share of cells in G2 (%) = 3.61
